Laboratory results from publication PMC11087051 (eLife, 2024).
End groups of sequences in plain letters are not given here. No end group written: not given here.

Experiment: peptide made by a vendor
Conditions: whole synthesis

Substance | purity (crude or final not stated)
APGLWamide | 90.7%
APPGNGEGEAGFIPWFS-NH2 | 91.5%
APRGGRDAPRG-NH2 | 90.1%
APRGGRSLLDLLAAPRG-NH2 | 94.6%
EIQPGNMKVWSDPF | 89.7%
FFKAamide | 95.1%
FLRNamide | 95.2%
FPPGFHRP-NH2 | 87.1%
FYRVamide | 96.9%
GPPGLW-NH2 | 96.1%
GPPM(ox)IKIPVRHamide | 98.1%
GPPMIKIPVRH-NH2 | 95.9%
GPPPIYLPVRP-NH2 | 97.9%
GPPQGLRW-NH2 | 97%
GPRGGRATEFGPRG-NH2 | 92.5%
GPRGGREVNLEGPRG-NH2 | 93.6%
GPRGGRSYDGPRG-NH2 | 92%
GPRGamide | 90.6%
GYYRDNIQETRQYLDPRP-NH2 | 97.4%
IPPQGFRFSQW-NH2 | 98.7%
IPPQGLRFNQW-NH2 | 96.2%

Substance | purity (crude or final not stated)
KGIKQEEIQPGNMKVWSDPF | 91.6%
LPPRFGGQI-NH2 | 85.4%
MPEQDANPQTRFD-NH2 | 97.6%
NPPIDLGPAYFHIR-NH2 | 91.9%
NPPQPPFRIPI-NH2 | 88.7%
QPGNMKVWSDPF | 85%
RSNRVVIHTGANPTMAPLRIPF-NH2 | 85.2%
SPKPPGLW-NH2 | 96.5%
SPPQWKLDSSPPQW | 93%
SPWSCSLRP-NH2 | 95.4%
SPWSYSLRP-NH2 | 98.8%
TPPSNI-NH2 | 97.4%
WPPRPamide | 97.5%
YPPFLELGQPSYFHIR-NH2 | 99.3%
YPPLNTV-NH2 | 95.3%
pyrQAGAPGLWamide | 89.9%
pyrQAGPPGLWamide | 90.1%
pyrQAKLNKGWESANYDKGWA | 95.7%
pyrQAMQWGHKGWA | 89.9%
pyrQC(dis)PPGLWGC(dis) | 96%
pyrQCPPGLWGC | 87.9%

Substance | purity (crude or final not stated)
pyrQDAFLPKPRPamide | 98.5%
pyrQETDGESLKKAEEEFV | 89.2%
pyrQGGLRWamide | 92.6%
pyrQGLMFRPamide | 95.8%
pyrQGLRWamide | 98.8%
pyrQGRFGREDQGRFamide | 87.3%
pyrQGRFamide | 97.6%
pyrQITRFamide | 97%
pyrQLFRPamide | 90%
pyrQLIFRPamide | 98.9%
pyrQLPSVSEVSENDVASLLRE | 95.7%
pyrQMPNMVPFHamide | 89%
pyrQNGHC(dis)PPGLWLC(dis)KANTRL | 92.6%
pyrQNGHCPPGLWLCKANTRL | 95.9%
pyrQPPFRIPIamide | 97.5%
pyrQPPLDLGPAYFHIRamide | 97.2%
pyrQPPLSHLSamide | 97.9%
pyrQPPYLDLGEPSFFHIRamide | 98.2%
pyrQPPYLDLTPAYFHIRamide | 96.1%
pyrQPYFHTDNSPNRFamide | 96.7%
pyrQYLDPRPamide | 94.2%
